# Test results taken from PubChem BioAssay AID540303 (National Center for Advancing Translational Sciences (NCATS), 2011).
# Where “and” joins values, the source holds several entries; their conditions need not be identical. Equal values may be shown once. About 1,000 (0.3%) of roughly 330,000 compounds were called active. This list was built around the results that the source calls inconclusive (neither active nor inactive); the mix of calls is not that of the screen. The call rests on the fitted dose curve; in most records, active means well fitted inhibition curve with a large enough effect; inconclusive means small, poorly fitted or top-dose-only effect; inactive means no such curve, though single readings can be large or run the other way; tested in mouse RAW 264.7 cells. A potency beside an inconclusive call is a rough fit, not a confirmed value.
# Test: qHTS for Inhibitors of Cell Surface uPA Generation; further: nearly all actives have a fitted effect of over 55% in size
# Conditions: cell surface uPA generation assay; series mostly up to 38.3 µM
# Outline: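 RAW 264.7, 4000 cells/well, o/n 37 C; cpd 1:5 dilution, up to 38.3 uM final; 24 h 37 C/5% CO2 with reagent; ATP-Lite lum. High ATP = LF entry blocked.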
# Potency means the concentration at half of the fitted maximal effect.
row,SMILES,Potency
1,CCN(c1ccccc1)c1ncnc2c1cnn2-c1ccccc1,inactive
2,CN1c2ccccc2C(C)(C)C12C=Nc1c(cc(N3CCOCC3)c3ccccc13)O2 (centres undefined),inactive
3,COc1cccc(-c2nc3n(n2)C(c2cccs2)C(C(=O)Nc2cccnc2)=C(C)N3)c1 (centres undefined),inactive
4,Cc1cccc(NC(=S)N2CCN(S(=O)(=O)c3ccccc3)CC2)c1,inactive
5,CN1CCN(c2nc(Nc3ccc(F)cc3)nc(Nc3ccc(F)cc3)n2)CC1,"inconclusive: 6.31 µM [inhibitor, partial curve, poor fit]"
6,O=C(Nc1ccc2nc(-c3ccccc3)[nH]c2c1)c1ccco1,inactive
7,Clc1ccc(-c2cc(-c3ccccn3)on2)c(Cl)c1,active: 0.891 µM
8,O=C(NCCc1c[nH]c2ccccc12)/C(=C/c1cccnc1)NC(=O)c1ccco1,"inconclusive: 2.51 µM [inhibitor, full curve, poor fit]"
9,COc1ccc2c(c1)C(=NNC(=O)c1ccccn1)c1cc(OC)ccc1-2,inactive
10,CC1=C(C(=O)NC2CCCc3c2cnn3-c2ccc(F)cc2F)OCCO1 (centres undefined),inactive
11,Cc1c(CC(=O)NCCCCCC(=O)O)c(=O)oc2cc3c(cc12)CCC(C)(C)O3,inactive
12,CCCCCN1C=CC(=C2C(=O)c3ccccc3C2=O)C=C1,active: 0.0224 µM
13,COC(=O)C1=C(C)N(Cc2ccccc2)C(=NCc2cccc(Cl)c2)N[C@H]1c1cccc(F)c1,"inconclusive: 28.2 µM [inhibitor, single point]"
14,C[C@@]12C(=O)Nc3cc(Cl)ccc3C(=O)N1[C@H]1c3ccccc3OC[C@@H]1[C@@H]2c1ccccc1,"inconclusive: 11.2 µM [inhibitor, partial curve, poor fit]"
15,CSc1nnc2c(n1)OC(c1ccc(C(=O)O)cc1)N(C(C)=O)c1ccccc1-2 (centres undefined),"inconclusive: 2.51 µM [inhibitor, full curve, poor fit]"
16,C/C(=N\NC(=O)c1ccc(C)cc1)c1c(C)[nH]n(-c2ccccc2)c1=O,"inconclusive: 7.94 µM [inhibitor, single point]"
17,CCOC(=O)C1C(=O)C=C(Nc2ccccc2F)CC1c1ccccc1 (centres undefined),inactive
18,COc1ccc2cc3[n+](cc2c1OC)CCc1cc2c(cc1-3)OCO2,"inconclusive: 4.47 µM [inhibitor, partial curve, poor fit] and inconclusive: 6.31 µM [inhibitor, partial curve, poor fit]"
19,CC(=O)Nc1cc2nn(-c3ccccc3)nc2cc1C,active: 5.01 µM
20,Cc1ccc(S(=O)(=O)Oc2ccc(/C=C3\C(=N)N4N=C(S(C)(=O)=O)SC4=NC3=O)cc2)cc1,inactive
21,CC(=O)N1CCc2cc(S(=O)(=O)CCC(=O)NCc3ccc(C)o3)ccc21,inactive
22,Cc1c(Cl)cccc1N/C(SCC(=O)N1CCCCCC1)=C(/C#N)c1nc2ccccc2s1,"inconclusive: 3.55 µM [inhibitor, full curve, poor fit]"
23,COC(=O)C(=Cc1ccccc1[N+](=O)[O-])C(=O)OC,"inconclusive: 2.24 µM [inhibitor, full curve, poor fit]"

# By substructure, the entries above with fluorine.
row,SMILES,Potency
5,CN1CCN(c2nc(Nc3ccc(F)cc3)nc(Nc3ccc(F)cc3)n2)CC1,"inconclusive: 6.31 µM [inhibitor, partial curve, poor fit]"
10,CC1=C(C(=O)NC2CCCc3c2cnn3-c2ccc(F)cc2F)OCCO1 (centres undefined),inactive
13,COC(=O)C1=C(C)N(Cc2ccccc2)C(=NCc2cccc(Cl)c2)N[C@H]1c1cccc(F)c1,"inconclusive: 28.2 µM [inhibitor, single point]"
17,CCOC(=O)C1C(=O)C=C(Nc2ccccc2F)CC1c1ccccc1 (centres undefined),inactive

# (further entries)

row,SMILES,Potency
1,Cn1cc(Br)c(C(=O)N/N=C/c2cc3c(cc2Cl)OCO3)n1,"inconclusive: 31.6 µM [inhibitor, partial curve, poor fit]"
2,Nc1ncnc2c1ncn2[C@H]1CC[C@@H](CO)O1,inactive
3,CCC1(c2ccc(F)cc2)NC(=O)N(CC(=O)Nc2cccc(S(=O)(=O)N3CCCC3)c2)C1=O (centres undefined),"inconclusive: 11.2 µM [inhibitor, single point]"
4,Cc1ccc(NC(=O)CSc2nc3ccccc3c(=O)n2CCCN2CCCCC2)cc1Cl,inactive
5,COc1cccc2c(C)cc(N3CCCCCC3)nc12,"inconclusive: 1.78 µM [inhibitor, full curve, poor fit]"
6,C/C(=N/NC(=O)COc1ccc(C(C)(C)C)cc1)c1ccc(N2CCOCC2)cc1,inactive
7,Nc1ncnc2c1ncn2[C@@H]1O[C@H](CO)C[C@H]1O,"inconclusive: 4.47 µM [inhibitor, partial curve, poor fit]"
8,O=C1Nc2cc(C(=O)NCCCN3CCOCC3)ccc2S/C1=C/c1ccccc1F,"inconclusive: 17.8 µM [inhibitor, single point]"
9,CCN(CC(=O)Nc1ccc(OC)cc1)C(=O)Cc1ccc(OC)c(S(=O)(=O)N2CCOCC2)c1,inactive
10,COc1cc(OC)cc(C(=O)O/N=C(\N)c2ccccn2)c1,"inconclusive: 6.31 µM [inhibitor, single point]"
11,CC[C@@H]1Cc2cc(O)ccc2C2=C1c1ccc(O)cc1C[C@H]2CC,"inconclusive: 7.94 µM [inhibitor, single point]"
12,C=CCn1c(C)cc(C(=O)CN2NS(=O)(=O)c3ccccc3C2=O)c1C,"inconclusive: 20 µM [inhibitor, single point]"
13,FC(F)(F)c1ccccc1/C=N/n1c(C2CCCCC2)n[nH]c1=S,"inconclusive: 0.316 µM [inhibitor, full curve, poor fit]"
14,CCN(CC)S(=O)(=O)c1ccc(OC(C)C)c(NC(=O)c2c3c(nc4ccccc24)CCN(Cc2ccccc2)C3)c1,"inconclusive: 1.78 µM [inhibitor, partial curve, poor fit]"
15,CCn1c(=N)n(CC(=O)c2ccc(Cl)c(Cl)c2)c2ccccc21,inactive
16,Cc1ccc(-c2cc(C(=O)O)c3ccccc3n2)c(C)c1,"inconclusive: 7.94 µM [inhibitor, partial curve]"
17,c1ccc(-c2nn3c(Cn4nnc5ccccc54)nnc3s2)cc1,inactive
18,COC(=O)[C@@]1(Cc2ccccc2)[C@H]2C(=O)N(Cc3ccccc3)C(=O)[C@H]2[C@H]2CN=C(SCC(=O)c3ccccc3)N21,"inconclusive: 2.24 µM [inhibitor, full curve, poor fit]"
19,COc1ccc(NC(=O)C2Cc3cc(S(=O)(=O)N4CCCCC4)ccc3N2C(C)=O)cc1Cl (centres undefined),inactive
20,Cc1ccc(NC(=O)c2ccc(S(=O)(=O)NCc3ccco3)cc2)nc1,"inconclusive: 7.08 µM [inhibitor, partial curve, poor fit]"
21,CC(C)(C)c1n[nH]c2c1CCCC2,inactive
22,COc1ccc(/C=N/n2c(C)nc3ccccc3c2=O)cc1,inactive
23,COc1ccc(C2CN=NC23CCc2ccccc2C3=O)cc1 (centres undefined),active: 4.47 µM

row,SMILES,Potency
1,Cc1ccc(C(=O)Nc2ccccc2N2CCCC2)s1,"inconclusive: 3.98 µM [inhibitor, partial curve, poor fit]"
2,CCOC(=O)c1c(N/N=C/c2cccnc2)n[nH]c1C,"inconclusive: 7.08 µM [inhibitor, partial curve, poor fit]"
3,CC(=O)Nc1ccc(NC(=O)c2nc(S(=O)(=O)Cc3ccccc3)ncc2Cl)cc1,"inconclusive: 2.51 µM [inhibitor, partial curve]"
4,O=C(NCc1ccccn1)C(=O)Nc1nc(C23CC4CC(CC(C4)C2)C3)cs1,"inconclusive: 12.6 µM [inhibitor, partial curve, poor fit]"
5,COC(CNC(=O)c1ccc2nc(-c3ccccc3)c(-c3ccccc3)nc2c1)OC,inactive
6,CC(C)Cc1ccc(C(C)C(=O)Nc2ccc(O)cc2)cc1 (centres undefined),"inconclusive: 10 µM [inhibitor, single point]"
7,c1ccc2c(Nc3nc(N4CCOCC4)c4ccccc4n3)cccc2c1,inactive
8,CC(C)c1cc(=O)n2[nH]c(N)nc2n1,inactive
9,CSc1ccccc1C(=O)NCc1ccc(F)cc1,"inconclusive: 2.82 µM [inhibitor, partial curve, poor fit]"
10,O=C(COC(=O)c1cc(F)c(F)cc1Cl)NC1CC1,inactive
11,OC(CNCc1ccccc1C(F)(F)F)C(F)(F)F (centres undefined),inactive
12,CC(=O)Oc1c(C)cc(Cl)cc1C(=O)Nc1ccc([N+](=O)[O-])cc1Cl,"inconclusive: 1.12 µM [inhibitor, full curve, poor fit]"
13,Cc1ccsc1C(=O)Nc1nc2ccccc2[nH]1,"inconclusive: 12.6 µM [inhibitor, partial curve, poor fit]"
14,O=C1[C@@H](Oc2ccccc2)[C@@H](c2cccnc2)N1c1ccccc1,"inconclusive: 12.6 µM [inhibitor, partial curve, poor fit]"
15,COc1cc(OC)c(NC(=O)Nc2ccc(OC)c(OC)c2)cc1Cl,inactive
16,COc1cccc(Cn2c(=O)c3[nH]cnc3n(-c3ccccc3C)c2=O)c1,"inconclusive: 7.94 µM [inhibitor, partial curve]"
17,CN(Cc1ccccc1)c1ccc(C(CC(N)=O)NC(=O)Cc2cccc3ccccc23)cc1[N+](=O)[O-] (centres undefined),inactive
18,CC(C)CC(COCc1ccc(Cl)cc1)N1CCN(C(=O)c2ccc(Cl)cc2Cl)CCC1=O (centres undefined),"inconclusive: 12.6 µM [inhibitor, single point]"
19,CCCNC(=O)c1ccc2c(c1)nc(C)n2-c1cccc(Cl)c1,"inconclusive: 1.58 µM [inhibitor, full curve, poor fit]"
20,CCOC(=O)c1c(C)[nH]c(C(=O)N/N=C\c2ccccc2O)c1C,"inconclusive: 22.4 µM [inhibitor, single point]"
21,CC(C)=CCC/C(C)=C/CNC(=O)CC1C[C@H](C(=O)N2CCOCC2)[C@@]2(C)c3[nH]c4ccccc4c3CCN2C1=O (some centres undefined),"inconclusive: 28.2 µM [inhibitor, single point]"
22,O=C(CCN1C(=O)C2C3C=CC(C4CC34)C2C1=O)Nc1ccc(Cl)cc1O (centres undefined),"inconclusive: 5.62 µM [inhibitor, single point]"
23,CC(=O)c1ccc(-c2cccc(-c3cc(=O)oc4ccc(C(C)(C)C)cc34)c2)cc1,"inconclusive: 28.2 µM [inhibitor, single point]"

# Quoted at random: two records from the list, in no set order.
row,SMILES,Potency
13,COC(=O)C1=C(C)N(Cc2ccccc2)C(=NCc2cccc(Cl)c2)N[C@H]1c1cccc(F)c1,"inconclusive: 28.2 µM [inhibitor, single point]"
1,Cn1cc(Br)c(C(=O)N/N=C/c2cc3c(cc2Cl)OCO3)n1,"inconclusive: 31.6 µM [inhibitor, partial curve, poor fit]"
